Results are given in words; binding and its absence hold for the method and conditions named. In cells and extracts the contact can be indirect. Some results given as binding are weak or reduced against the parent protein; the word gives no strength.
T1: Piwi (Drosophila (endogenous in OSC)) (UniProt Q9VKM1)
T1 sequence: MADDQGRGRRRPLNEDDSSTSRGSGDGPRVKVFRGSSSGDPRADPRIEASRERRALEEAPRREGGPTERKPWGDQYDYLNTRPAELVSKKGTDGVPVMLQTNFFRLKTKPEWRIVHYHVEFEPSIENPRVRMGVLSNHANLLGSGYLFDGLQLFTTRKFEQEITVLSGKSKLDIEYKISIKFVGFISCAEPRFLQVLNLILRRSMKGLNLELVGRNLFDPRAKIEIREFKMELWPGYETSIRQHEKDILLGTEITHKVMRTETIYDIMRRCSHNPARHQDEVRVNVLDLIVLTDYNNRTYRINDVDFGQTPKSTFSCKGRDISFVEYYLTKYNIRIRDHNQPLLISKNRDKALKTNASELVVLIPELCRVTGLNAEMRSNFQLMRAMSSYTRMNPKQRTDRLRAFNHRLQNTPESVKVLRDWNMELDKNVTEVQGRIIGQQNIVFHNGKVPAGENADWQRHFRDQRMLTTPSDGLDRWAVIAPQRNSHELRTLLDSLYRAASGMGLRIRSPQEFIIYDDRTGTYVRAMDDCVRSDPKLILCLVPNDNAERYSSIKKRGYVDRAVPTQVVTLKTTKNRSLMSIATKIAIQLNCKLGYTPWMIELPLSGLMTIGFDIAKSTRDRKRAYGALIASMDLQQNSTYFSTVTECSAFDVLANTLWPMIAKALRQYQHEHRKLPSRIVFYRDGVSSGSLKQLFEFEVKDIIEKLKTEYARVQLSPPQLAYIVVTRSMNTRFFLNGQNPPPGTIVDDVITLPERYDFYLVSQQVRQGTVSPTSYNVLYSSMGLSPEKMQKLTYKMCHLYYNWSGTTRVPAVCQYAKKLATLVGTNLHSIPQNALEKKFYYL

Protein sequences, listed by entry. Tags and fused reporters are not part of them.
UniProt Q94517: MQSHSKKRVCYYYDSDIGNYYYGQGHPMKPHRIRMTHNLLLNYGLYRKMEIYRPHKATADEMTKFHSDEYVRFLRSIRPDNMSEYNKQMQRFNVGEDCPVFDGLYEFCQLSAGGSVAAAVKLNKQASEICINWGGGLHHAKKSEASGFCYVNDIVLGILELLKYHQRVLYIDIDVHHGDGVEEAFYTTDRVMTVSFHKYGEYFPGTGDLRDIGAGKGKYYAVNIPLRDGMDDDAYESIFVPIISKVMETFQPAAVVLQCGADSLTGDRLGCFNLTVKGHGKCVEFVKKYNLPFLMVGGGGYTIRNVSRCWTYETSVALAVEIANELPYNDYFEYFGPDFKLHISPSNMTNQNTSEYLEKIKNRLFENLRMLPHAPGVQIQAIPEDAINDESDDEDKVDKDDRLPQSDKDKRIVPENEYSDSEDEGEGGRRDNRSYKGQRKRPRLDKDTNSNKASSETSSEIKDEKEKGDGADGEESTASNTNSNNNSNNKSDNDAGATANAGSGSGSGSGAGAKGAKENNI
UniProt Q24572: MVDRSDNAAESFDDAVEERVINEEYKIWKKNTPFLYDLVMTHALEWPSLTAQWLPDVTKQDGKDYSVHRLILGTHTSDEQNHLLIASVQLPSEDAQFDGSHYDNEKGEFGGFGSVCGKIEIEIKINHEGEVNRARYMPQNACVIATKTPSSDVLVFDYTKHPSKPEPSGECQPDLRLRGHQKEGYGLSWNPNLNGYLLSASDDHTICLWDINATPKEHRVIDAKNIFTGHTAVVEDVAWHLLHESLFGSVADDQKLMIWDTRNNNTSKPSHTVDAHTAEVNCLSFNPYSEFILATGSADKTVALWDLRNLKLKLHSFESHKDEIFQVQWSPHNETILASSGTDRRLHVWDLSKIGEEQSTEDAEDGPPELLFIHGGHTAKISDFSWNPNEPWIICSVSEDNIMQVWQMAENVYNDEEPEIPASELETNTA


molecular target: T1, Piwi (Drosophila (endogenous in OSC)); assay: co-IP; IP of endogenous Piwi (anti-Piwi mouse monoclonal) or endogenous MEP-1 (anti-MEP-1 rabbit polyclonal) from OSC nuclear extract (Gtsf1-FH-containing; for Fig. 6a expressing FLAG-FFL-Su(var)2-10), Nuclear Complex Co-IP Kit under stringent conditions, overnight at 4 °C, Dynabeads protein G, control IgG, western blot

binding | Molecule
binds | Rpd3 (from UniProt Q94517 1-521)
binds | p55 (from UniProt Q24572 1-430)
no binding | Pc (protein, UniProt P26017 1-390) MTGRGKGSKGKLGRDNATDDPVDLVYAAEKIIQKRVKKGVVEYRVKWKGWNQRYNTWEPEVNILDRRLIDIYEQTNKSSGTPSKRGIKKKEKEPDPEPESEEDEYTFTENDVDTHQATTSSATHDKESKKEKKHHHHHHHHHHIKSERNSGRRSESPLTHHHHHHHHESKRQRIDHSSSSNSSFTHNSFVPEPDSNSSSSEDQPLIGTKRKAEVLKESGKIGVTIKTSPDGPTIKPQPTQQVTPSQQQPFQDQQQAEKIASEAATQLKSEQQATPLATEAINTTPAESGAEEEEVANEEGNQQAPQVPSENNNIPKPCNNLAINQKQPLTPLSPRALPPRFWLPAKCNISNRVVITDVTVNLETVTIRECKTERGFFRERDMKGDSSPVA
